# Results of single-concentration screens

The chains behind the UniProt entries cited, without tags or fusion partners. Residues count along the entry.
UniProt P9WPC5, whole entry: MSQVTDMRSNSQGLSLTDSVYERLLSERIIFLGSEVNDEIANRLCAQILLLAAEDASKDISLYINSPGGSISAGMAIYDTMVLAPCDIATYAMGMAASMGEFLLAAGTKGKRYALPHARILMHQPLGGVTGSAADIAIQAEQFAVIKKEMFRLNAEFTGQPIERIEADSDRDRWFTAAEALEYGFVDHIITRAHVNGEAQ
UniProt P9WPC3, whole entry partner: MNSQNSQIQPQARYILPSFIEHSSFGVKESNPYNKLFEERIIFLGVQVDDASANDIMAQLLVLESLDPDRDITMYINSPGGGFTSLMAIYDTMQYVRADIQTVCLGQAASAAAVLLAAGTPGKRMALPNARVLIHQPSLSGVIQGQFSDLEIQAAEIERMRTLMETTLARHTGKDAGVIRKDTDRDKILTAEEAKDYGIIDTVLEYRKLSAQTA
UniProt Q4DA54, 1-478: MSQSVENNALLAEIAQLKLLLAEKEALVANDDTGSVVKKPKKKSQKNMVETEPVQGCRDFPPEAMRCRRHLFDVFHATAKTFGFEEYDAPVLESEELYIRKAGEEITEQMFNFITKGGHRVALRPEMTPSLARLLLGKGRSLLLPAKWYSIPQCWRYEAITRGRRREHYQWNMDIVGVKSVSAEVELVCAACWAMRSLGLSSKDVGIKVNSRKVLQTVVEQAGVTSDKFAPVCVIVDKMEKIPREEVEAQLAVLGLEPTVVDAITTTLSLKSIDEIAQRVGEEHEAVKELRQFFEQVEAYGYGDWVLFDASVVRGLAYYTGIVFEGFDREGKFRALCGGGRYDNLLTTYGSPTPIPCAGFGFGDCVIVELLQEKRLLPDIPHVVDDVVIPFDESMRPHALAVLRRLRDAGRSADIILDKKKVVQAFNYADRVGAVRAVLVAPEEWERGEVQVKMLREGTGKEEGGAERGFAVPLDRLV
UniProt P9WNZ1, whole entry: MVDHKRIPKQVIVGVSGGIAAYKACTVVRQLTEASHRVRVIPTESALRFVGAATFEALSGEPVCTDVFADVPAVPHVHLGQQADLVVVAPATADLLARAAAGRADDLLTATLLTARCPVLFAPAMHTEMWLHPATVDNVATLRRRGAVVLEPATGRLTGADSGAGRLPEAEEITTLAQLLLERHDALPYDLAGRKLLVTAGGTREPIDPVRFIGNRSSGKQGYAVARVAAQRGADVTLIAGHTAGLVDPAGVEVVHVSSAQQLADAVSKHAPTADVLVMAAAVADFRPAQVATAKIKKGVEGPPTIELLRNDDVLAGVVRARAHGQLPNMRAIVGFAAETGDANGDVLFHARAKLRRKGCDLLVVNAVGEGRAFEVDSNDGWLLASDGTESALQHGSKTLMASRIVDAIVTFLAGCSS

The values are deposited in ChEMBL (CHEMBL3988442, “University of Dundee, Small-Polar-MMV Screening Library” (2021)).

Values are the deposited “Percent Effect”, in %. How 0% and 100% were set is not recorded. Most values in the screen are low, and negative values occur. This is an unselected part of the compounds tested. Two or more numbers in one place are separate tests of the same structure; such repeats can differ widely. A dash means the value is not listed here; it may have been measured.

ClpP1P2: 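Protease assay of ClpP1P2, read by the AMC dye that it sets free. Target: ClpP1P2, Mycobacterium tuberculosis (UniProt P9WPC5 and UniProt P9WPC3). Concentration: 50 µM. Direction is inferred from only a few compounds that gave an IC50; most scored high, so higher reads as stronger inhibition. Most other retested compounds had strongly negative values. Size under these conditions: about 69,000 compounds, about 10 of them at 50% or above in at least one test.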
Toxoplasma: 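Assay of Toxoplasma gondii numbers, read through their beta-galactosidase reporter with a colour substrate. Tested at 10 µM. Higher reads as fewer parasites (inferred from which compounds were picked for retests). Of about 67,000 compounds tested this way, about 260 (0.38%) reached 50% or more in at least one test.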
Leishmania in macrophages: 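Cell assay of Leishmania donovani living inside macrophages; the read-out is not stated. Concentration: 30 µM. Higher reads as stronger inhibition (inferred: compounds with an IC50 in retests scored well above the rest). Size under these conditions: about 69,000 compounds, about 1,000 of them at 50% or above in at least one test.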
TcHisRS: 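Enzyme assay of histidyl-tRNA synthetase; the read-out is not stated. Target: Histidine-tRNA ligase, Trypanosoma cruzi CL Brener (UniProt Q4DA54). Compounds at 30 µM. The record gives no direction; compounds that gave an IC50 in retests scored well above the rest, so higher reads as stronger inhibition. About 69,000 compounds were tested under these conditions; 0.045% (about 31) showed 50% or more at least once.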
CoaBC: 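Coenzyme A biosynthesis protein CoaBC, Mycobacterium tuberculosis (UniProt P9WNZ1). Enzyme assay of CoaBC with a phosphate dye (Biomol Green) read at 650 nm. Tested at 30 µM. Higher reads as stronger inhibition, judged from the few compounds that gave an IC50. Most strong results did not repeat in a second test. Of about 67,000 compounds tested this way, about 40 (0.06%) reached 50% or more in at least one test.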

Compound	ClpP1P2	Toxoplasma	Leishmania in macrophages	TcHisRS	CoaBC
Cc1cc(C[C@@H]2CCC[C@H]2NCc2cccc(F)c2F)on1	-19.37%	-	-	9.89%	0%
O=C(NCCN1C(=O)CCC1=O)c1nc2ccccc2c(=O)[nH]1	-17.93%	-1.748%	-6.764%	0.9804%	0.4878%
CC(=O)N1Cc2ccccc2CC1C(=O)Nc1ccc(N(C)C)cn1 (stereo not shown)	-1.531%	0.2163%	40.62%	7.792%	8.78%
O=C(O)C(F)(F)F.[H][C@@]12C[C@@H](c3nc(C)no3)CN(S(=O)(=O)c3cccnc3)[C@]1([H])CCO2	-	9.664%	12.93%	-	-
O=C(Nc1cc(F)ccc1OCC1CCCO1)NC1CC1 (stereo not shown)	-17.68%	5.899%	15.46%	3.429%	5.018%
NCCC(=O)N1CCC2(CC1)CN(C(=O)Cc1ccc(Cl)cc1)CCO2	-6.548%	-11.68%	-0.5643%	6.509%	3.684%
[H][C@@]12CCN(C(=O)c3ccc(-c4ccccc4)[nH]3)C[C@@]([H])(CC1)N2C	-	10.86%	78.84%	-	-
Cc1cccc(N2CCC3(CCN(C(=O)c4cccnc4)CC3)C2)n1	2.347%	-	-	7.2%	8.28%
CS(=O)(=O)N1CCOCC2(CN(Cc3ccc(F)cc3)CCO2)C1.O=C(O)C(F)(F)F (stereo not shown)	-	-5.181%	19.26%	-	-
O=C(C1CC1)N1C[C@@H](F)[C@@H](OCc2nc3ccccc3[nH]2)C1	3.35%	5.391%	-10.29%	0%	0.6623%
CCN1CC2(CCCCN2C(=O)C2CCCCC2)CC1=O (stereo not shown)	-8.602%	0.2697%	18.25%	3.797%	-
Cc1cc(C(=O)N2CCCC3(COCCN(c4ccccc4)C3)C2)[nH]n1 (stereo not shown)	-3.818%	0.4787%	9.328%	6.135%	-
Cc1ccsc1[C@@H]1CCN(C(=O)c2cc3ccccc3[nH]2)C[C@H]1O	-8.552%	0.4653%	20.88%	2.439%	-3.376%
Cn1c(CCCNc2nccnc2C#N)nc2ccccc21	-8.114%	13.18%	-0.09547%	9.836%	7.09%
CC(C)c1nc(S(=O)(=O)N(C)c2cc(F)ccc2F)c[nH]1	-17.41%	-2.731%	-15.28%	4.865%	-0.8547%
Cc1occc1C(=O)N1CCC2(CCN(C(=O)c3cccnc3)C2)CC1	-0.3643%	-	-	-2.116%	2.963%
Cc1cn(-c2ccccc2)nc1NS(=O)(=O)c1cc(C(=O)O)ccc1Cl	2.193%	11.57%	44.58%	-1.22%	-0.3797%
Cc1nn(C)c(C)c1CCC(=O)N1CCCC(n2cncn2)C1 (stereo not shown)	-30.65%	-2.768%	8.024%	6.78%	-0.2611%
COc1ccc(CNCC2CCN(CCO)CC2)cc1F	-5.496%	1.554%	13.13%	6.897%	-21.43%
Cc1ccc(NC2CCN(C(=O)c3cccc4c3ccn4C)CC2)nn1	-20.8%	-2.643%	27.78%	10.37%	3.636%
COC(=O)C(NC(=O)c1cc(C)ccc1C)c1cccnc1 (stereo not shown)	-5.269%	-4.616%	12.09%	10.3%	-2.19%
O=C(O)C(F)(F)F.O=C(O)C(F)(F)F.[H][C@@]12CCN(Cc3ccoc3)[C@]1([H])CC[C@@H](C(=O)NCCc1ccccn1)O2	-	2.674%	15.04%	-	-
N#Cc1cc(F)c(NCc2ccc(F)cc2)c(F)c1	8.153%	-0.2238%	-31.04%	5.056%	-0.6036%
O=C1COc2ccc(S(=O)(=O)NCCC3=CCCCC3)cc2N1	0.8456%	9.569%	29.75%	5.941%	2.542%
Cc1nc(-c2cccc(C(=O)N(C)CC(C)O)c2)cs1 (stereo not shown)	-2.282%	6.154%	-5.57%	1.571%	-7.923%
O=C(NCCCO)c1cc(-c2cc[nH]n2)n2ccccc12.O=C(O)C(F)(F)F	-	-0.5668%	17.2%	-	-
CC(C)c1cc(N(C)Cc2cc(C3CC3)on2)n2nccc2n1	-3.525%	-32.06%	41.34%	0.8%	-0.6494%
CC(C)N(C)Cc1cc(=O)n2c(n1)CN(S(=O)(=O)C1CC1)CCC2	-0.8962%	-	-	-3.911%	-2.545%
O=C(O)C(F)(F)F.O=C(c1ccoc1)N1CCOC2(COCCN(CC3CC3)C2)C1 (stereo not shown)	-	3.777%	7.927%	-	-
CCc1nc2n(n1)CC(NCc1nc3ccccc3nc1C)CC2 (stereo not shown)	6.843%	5.41%	3.053%	17.28%	6.258%
CC(C)Cc1ncc2c(n1)CN(C(=O)c1ccc(CN3CCCC3)o1)C2	10.35%	0.9377%	21.48%	-3.352%	7.712%
Clc1ccc(-c2nnc([C@H]3CCN(C4CCCCC4)C3)o2)cc1	-1.755%	-3.637%	17.89%	6.522%	11.7%
COc1ccc2c(c1)CCCN2C(=O)CN1CCOC(C)C1 (stereo not shown)	-2.964%	-20.21%	2.264%	7.027%	0.9091%
Cc1cscc1C(=O)N1CCCC1CC(=O)c1cnn(C)c1 (stereo not shown)	-1.419%	-21.47%	14.63%	2.006%	8.323%
CC(=O)N1CCC(c2ccnc(Nc3cnccn3)n2)C1 (stereo not shown)	9.317%	-1.941%	28.56%	4.918%	5.959%
Cn1cc(C(=O)NCCc2csc(-c3ccccc3)n2)ccc1=O	-12.68%	-4.153%	2.898%	10.5%	-4.854%
[H][C@@]12CS(=O)(=O)C[C@]1([H])N(C(=O)CCc1ccccc1)CCN2C(=O)N(C)C	-	-4.616%	30.43%	-	-
Clc1cc(NCc2ncc[nH]2)nc2[nH]ccc12	-17.37%	-12.32%	9.91%	1.493%	-1.129%
COc1cc(CNC(=O)c2cc(Cl)ccc2F)ccn1	-6.14%	15.39%	0.2372%	3.982%	-0.4673%
CC(C)(CNC(=O)C1(c2ccccc2)CCOCC1)C(=O)O	-8.642%	7.945%	18.18%	0%	20.52% & 0%
Cc1nc(N(C)C)nc(C)c1NC(=O)c1ccco1	7.732%	3.218%	7.243% & -5.931%	5.155%	1.057%
CCN(CC)S(=O)(=O)c1cccc(C(=O)N(C)Cc2ccsc2)c1	9.402%	6.457%	-5.495%	2.286%	2.389%
Cc1nc(NC(=O)N2CCCC(C(F)(F)F)C2)nn1C (stereo not shown)	-9.575%	-	18.47%	5.747%	-1.107%
CCC(NS(=O)(=O)c1ccc(C(=O)NC2CC2)cc1)c1ccnn1C (stereo not shown)	-2.084%	3.21%	-2.768%	4.433%	6.129%
CC(C)(C(=O)NCCCC(N)=O)c1cccc(Br)c1	0.1693%	6.497%	33.52%	1.478%	7.911%
CCOCC(=O)N(C)c1ccc(F)c(Cl)c1	-0.8257%	6.93%	30.52%	2.762%	5.95%
O=C1c2cnc(N3CCOCC3)nc2CN1Cc1cccc(F)c1	8.756%	12.79%	14.7%	1.754%	10.52%
NC(=O)C1CCN(C(=O)CCn2ccc3ccc(F)cc32)CC1	1.34%	-10.36%	-6.926%	5.263%	-0.5051%
[H][C@@]12CCN(c3cc(OC)ncn3)C[C@]1(COc1nccc(C)n1)CCO2	-	5.123%	25.01%	-	-
CCC[C@@H]1CN(Cc2ccc(C(F)(F)F)nc2)C[C@H]1C(=O)O	-5.368%	1.948%	8.832%	15.48%	1.106%
COc1ccc(-c2nnc(CN3CCNC(=O)C3)o2)cc1	1.153%	14.99%	13.35%	3.175%	8.087%
CN(C)C(=O)c1ccc2c(c1)N(C)C(CC(=O)NC(C)(C)CO)CO2 (stereo not shown)	-0.5289%	6.514%	-28.08%	6.504%	-8.017%
O=C(NC1CC1)c1cc(NC(=O)N2CCOCC2)ccc1Cl	-23.61%	7.495%	-3.039%	0.9804%	1.707%
CN1CCCc2c1nc1c(c2N)CCCC1.O=C(O)C(=O)O	-	-1.877%	31.87%	-	-
Cc1ccc(N2CCc3sc(C(=O)N4CCOCC4)cc32)nn1	-6.693%	12.48%	10.1%	13.08%	4.444%

The last 3 entries again:

* O=C(NC1CC1)c1cc(NC(=O)N2CCOCC2)ccc1Cl | ClpP1P2: -23.61%; Toxoplasma: 7.495%; Leishmania in macrophages: -3.039%; TcHisRS: 0.9804%; CoaBC: 1.707%
* CN1CCCc2c1nc1c(c2N)CCCC1.O=C(O)C(=O)O | Toxoplasma: -1.877%; Leishmania in macrophages: 31.87%
* Cc1ccc(N2CCc3sc(C(=O)N4CCOCC4)cc32)nn1 | ClpP1P2: -6.693%; Toxoplasma: 12.48%; Leishmania in macrophages: 10.1%; TcHisRS: 13.08%; CoaBC: 4.444%